Several values for one entry are separate records, joined by “and”; a condition that tells them apart may be missing. Equal values may be shown once. Where a name gives a salt, the structure may show the parent alone. ± gives the standard deviation of the averaged measurements. Some of the results follow. Most values lie within the scatter of the assay; repeated measurements hardly agree.
What follows are compounds tested on A549 (assay: surface PD-L1 immunofluorescence intensity relative to IFN-gamma-only control (ratio); higher = more PD-L1 expression). Conditions: 10 µM; exposure time 24 h; IFN-gamma 100 ng/mL.

SMILES | surface PD-L1 immunofluorescence intensity
C/C(=C(\CCOP(=O)(O)O)SC(=O)c1ccccc1)N(C=O)Cc1cnc(C)nc1N [Benfotiamine] | 1.09
COc1ccc([C@@H]2CC(=O)c3c(O)cc(O[C@@H]4O[C@H](CO[C@@H]5O[C@@H](C)[C@H](O)[C@@H](O)[C@H]5O)[C@@H](O)[C@H](O)[C@H]4O)cc3O2)cc1O [Hesperidin] | 0.964 ± 0.093
NC(N)=S [Thiourea] | 0.95
O=c1cc(N2CCOCC2)oc2c(-c3cccc4c3sc3ccccc34)cccc12 | 0.981
CC(C)(C(=O)O)c1ccc(C(O)CCCN2CCC(C(O)(c3ccccc3)c3ccccc3)CC2)cc1 (stereo not given) [Fexofenadine hydrochloride] | 1.04
CC(C)(C(=O)O)c1ccc(C(O)CCCN2CCC(C(O)(c3ccccc3)c3ccccc3)CC2)cc1 (stereo not given) [Fexofenadine HCl] | 1.01
CN(C)CCCN1c2ccccc2Sc2ccccc21 [Promazine hydrochloride] | 0.984
Cc1cc(C(C)(C)C)c(O)c(C)c1CC1=NCCN1 [Oxymetazoline hydrochloride] | 1.03 ± 0.026
NS(=O)(=O)c1cc(C(=O)O)cc(N2CCCC2)c1Oc1ccccc1 [Piretanide] | 1.05
O=C[C@H](O)[C@@H](O)[C@H](O)CO [Xylose] | 1.03
O=C(O)COc1ccc(OCCNC[C@H](O)COc2ccccc2)cc1 [ICI 215,001 hydrochloride] | 1.01
COC(=O)C[C@H](NC(=O)[C@H](C)NC(=O)[C@@H](NC(=O)OCc1ccccc1)C(C)C)C(=O)CF | 1.08
CC(=O)Nc1ccccc1 [Acetanilide (Antifebrin)] | 1.06
C[N+]1(C)[C@@H]2C[C@@H](OC(=O)C(O)(c3cccs3)c3cccs3)C[C@H]1[C@@H]1O[C@@H]12 [Tiotropium Bromide hydrate] | 1.01
CSc1ccc2c(c1)C(N1CCN(C)CC1)Cc1ccccc1S2 (stereo not given) [Methiothepin maleate] | 0.914 ± 0.01
CC(C(=O)O)c1ccc2c(c1)Cc1cccnc1O2 (stereo not given) [Pranoprofen] | 1.05
Cc1ccc(O)c(N=Nc2ccccc2)n1 | 1.02
Cc1c(C)c2c(c(C)c1O)CCC(C)(COc1ccc(CC3SC(=O)NC3=O)cc1)O2 (stereo not given) [Troglitazone] | 0.965 ± 0.047
C[N+]1(C)[C@@H]2CC[C@H]1C[C@@H](OC(=O)C(O)c1ccccc1)C2 (stereo not given in full) [Homatropine Methylbromide] | 1.03
COC(c1ccccc1)(c1ccccc1)[C@H](Oc1nc(C)cc(C)n1)C(=O)O [Ambrisentan] | 1.1 ± 0.041
COC(=O)C1=C(C)NC(C)=C(C(=O)OCCN2CCN(C(c3ccccc3)c3ccccc3)CC2)C1c1cccc([N+](=O)[O-])c1 (stereo not given) [Manidipine (Manyper)] | 1.13
Cc1cc2c(cc1S(N)(=O)=O)S(=O)(=O)CCC2 [Meticrane] | 0.86
Clc1cnccn1 [2-Chloropyrazine] | 0.975
Nc1nc2c(ncn2[C@@H]2O[C@H](CO)[C@@H](O)[C@H]2O)c(=O)[nH]1 [Guanosine] | 1.08
NCCNCCNCCNCCN [Tetraethylenepentamine pentahydrochloride] | 0.945

A second format for some results above.
SMILES	surface PD-L1 immunofluorescence intensity
CC(=O)Nc1ccccc1 [Acetanilide (Antifebrin)]	1.06
C[N+]1(C)[C@@H]2C[C@@H](OC(=O)C(O)(c3cccs3)c3cccs3)C[C@H]1[C@@H]1O[C@@H]12 [Tiotropium Bromide hydrate]	1.01
CSc1ccc2c(c1)C(N1CCN(C)CC1)Cc1ccccc1S2 (stereo not given) [Methiothepin maleate]	0.914 ± 0.01
CC(C(=O)O)c1ccc2c(c1)Cc1cccnc1O2 (stereo not given) [Pranoprofen]	1.05
Cc1ccc(O)c(N=Nc2ccccc2)n1	1.02
Cc1c(C)c2c(c(C)c1O)CCC(C)(COc1ccc(CC3SC(=O)NC3=O)cc1)O2 (stereo not given) [Troglitazone]	0.965 ± 0.047
C[N+]1(C)[C@@H]2CC[C@H]1C[C@@H](OC(=O)C(O)c1ccccc1)C2 (stereo not given in full) [Homatropine Methylbromide]	1.03
COC(c1ccccc1)(c1ccccc1)[C@H](Oc1nc(C)cc(C)n1)C(=O)O [Ambrisentan]	1.1 ± 0.041
COC(=O)C1=C(C)NC(C)=C(C(=O)OCCN2CCN(C(c3ccccc3)c3ccccc3)CC2)C1c1cccc([N+](=O)[O-])c1 (stereo not given) [Manidipine (Manyper)]	1.13
Cc1cc2c(cc1S(N)(=O)=O)S(=O)(=O)CCC2 [Meticrane]	0.86
Clc1cnccn1 [2-Chloropyrazine]	0.975
Nc1nc2c(ncn2[C@@H]2O[C@H](CO)[C@@H](O)[C@H]2O)c(=O)[nH]1 [Guanosine]	1.08
NCCNCCNCCNCCN [Tetraethylenepentamine pentahydrochloride]	0.945

(continued)

SMILES | surface PD-L1 immunofluorescence intensity
CC1(C)S[C@@H]2[C@H](NC(=O)[C@H](NC(=O)N3CCNC3=O)c3ccccc3)C(=O)N2[C@H]1C(=O)O [Azlocillin sodium salt] | 1.03 ± 0.011
COc1ccc(C(Cl)=C(c2ccc(OC)cc2)c2ccc(OC)cc2)cc1 [Chlorotrianisene] | 0.938
Cc1oncc1C(=O)Nc1ccc(C(F)(F)F)cc1 [Leflunomide] | 1 ± 0.012
O=c1[nH]c2cc(C(F)(F)F)c(N3CCOCC3)cc2n(CP(=O)(O)O)c1=O | 0.939
O=C(O)c1cccnc1Nc1cccc(C(F)(F)F)c1 [Niflumic acid] | 0.9 ± 0.02
CCOC(=O)[C@H](CCc1ccccc1)N[C@@H](C)C(=O)N1Cc2ccccc2C[C@H]1C(=O)O [Quinapril HCl] | 1.02
Cn1cc(-c2ccc3ncc(Cc4ccc5ncccc5c4)n3n2)cn1 | 0.968 ± 0.015
CN1C(C)(C)CCCC1(C)C [Pempidine tartrate] | 0.992
O=c1[nH]ccc2c(S(=O)(=O)N3CCCNCC3)cccc12 [HA 1100 hydrochloride] | 0.99
Cc1cc(NC(=O)Nc2ccc(N(C)C)cc2)c2cc(F)cc(F)c2n1 | 0.972
Cc1onc(-c2c(Cl)cccc2Cl)c1C(=O)N[C@@H]1C(=O)N2[C@@H]1SC(C)(C)[C@@H]2C(=O)O [Dicloxacillin sodium salt hydrate] | 1.02
CC1(C)Oc2ccc(C#N)cc2[C@@H](N2CCCC2=O)[C@@H]1O [Levcromakalim] | 0.959
CN(C)/N=N/c1[nH]cnc1C(N)=O [Dacarbazine] | 1.02
CC1C(=O)OC2C(O)C34C5CC(C(C)(C)C)C36C(OC(=O)C6O)OC4(C(=O)O5)C12O (stereo not given) [Ginkgolide B] | 0.978
C[N+](C)(C)CCCCCC[N+](C)(C)C [Hexamethonium dibromide dihydrate] | 0.85
CC[N+](C)(C)Cc1ccccc1Br [Bretylium tosylate] | 0.974
CCCCCCCCc1ccc(-c2ccc(C(=O)O)cc2)cc1 | 1.03
N#Cc1c(O)c2c(-c3ccc(-c4ccccc4O)cc3)csc2[nH]c1=O | 1.1 and 1.06
CCCCC(=O)O[C@H]1CC[C@H]2[C@@H]3CCc4cc(O)ccc4[C@H]3CC[C@]12C [Estradiol valerate] | 0.94
CCCCC(=O)O[C@H]1CC[C@H]2[C@@H]3CCc4cc(O)ccc4[C@H]3CC[C@]12C [Estradiol Valerate] | 1.03
N=C(N)c1ccc(OCCCCCOc2ccc(C(=N)N)cc2)cc1 [Pentamidine isethionate] | 1.08
N=C(N)c1ccc(OCCCCCOc2ccc(C(=N)N)cc2)cc1 [Pentamidine] | 1.07
N=C(N)SCCc1ccc(OCc2ccc([N+](=O)[O-])cc2)cc1 [KB-R7943 mesylate] | 0.936
O=c1cc(-c2cccc3c2Sc2ccccc2S3)oc(N2CCOCC2)c1 | 0.977 and 1.05
Fc1ccc(C(c2ccc(F)cc2)N2CCN(C/C=C/c3ccccc3)CC2)cc1 [Flunarizine dihydrochloride] | 1.02 ± 0.091

— the supplement of paper PMC8732350
